Assay results from patent publication US10759848.
Substitutions are numbered along the chain they refer to. No constants are given. Whether binding was seen depends on the method and setting.

B1: UaLPLO3-601 (antibody, V domains shown)
VH: EVQLVESGGGLVQPGGSLRLSCEASGFTFSRNWMSWVRQIPGKGLEWVADIKADGSEKVYLDSMKGRLTISRDNARNLLYLQMDSLRVEDSALYHCARGPSYGDRCDYLDHWGRGALVTVSS
VL: DIVMTQSPLSLPVTPGEPASISCRSSQSLLEPNGHNYVDWYQQKPGQSPRLLIYLGSNRASGVPDRFSGSGGGTDFTLKISRVEAEDVGLYYCMQPLQTPYTFGQGTKLEIK
B2: UaLPLO3-208L (antibody, V domains shown)
VH: QLQLQESGPGLVKPSETLSLTCSVSGVSISNFNYYWGWVRQPPGKPLEWIGTIYYNGNTYYNPSLKSRVTISVDTSKTQLSLKLLSVTAADTAVYYCAWDSGSVERFDHWSQGTLVTVSS
VL: QSVLTQPPSTSGTPGQRVTISCSGSSSNIGSKTVNWYKQVPGTAPKLLVFNDNQRPSRVPDRFSGSKSGTSASLAISGLQSDDEADYYCAAWDDNFNGLLFGGGTKLTVL
B3: UaLPLO3-547 (antibody, V domains shown)
VH: EVQLVESGGGLVQPGGSLRLSCSTSGFDFSRHWMTWVRQAPGKGLEWVADIKKDGSEENYVDTVKGRLTISRDNARRSLYLQMNSLRTDDTAVYYCARGPSYGDRSDYLDNWGQGTLVTVSS
VL: DIVMTQSPLSLAVTPGEPASISCRSSQWLLESNGHNYLDWYLQKPGQSPQLLIPLGSNRASGVPDRFSGSGSGTDFTLTISRVEAEDVGVYYCMQPLKLPYTFGQGTKLEIK
B4: UaLPLO3-555 (antibody, V domains shown)
VH: B3 VH
VL: B3 VL with P54S

Target: Streptavidin (UniProt P22629)
Experiment: Streptavidin ELISA (streptavidin-coated plate without biotinylated O-antigen), area under the OD405 titration curve

binding, no binding (tested: 4 ug/ml):
B1, B2, B3, B4
